Assay results taken from patent publication US7794995B2, “Purified PKB Ser 473 kinase and uses thereof” (priority 2002, dated 2010).

System: PKB Ser473 kinase
Settings: first of two kinase activities in the partially purified fraction; 0-100 microM tested

With `CN[C@@H]1C[C@H]2O[C@@](C)([C@@H]1OC)n1c3ccccc3c3c4c(c5c6ccccc6n2c5c31)C(=O)NC4` [staurosporine] the “Staurosporine concentration at which inhibition was observed, acutely sensitive kinase activity” value was 1 nM.
